# Test results as given in patent publication US20050255537A1, “Method for monitoring treatment with a parathyroid hormone” (priority 1999, published 2005).
# Test: Example 5 study GHAJ: height
# Type: in vivo, human
smiles,measurement,setting,value
CC[C@H](C)[C@H](NC(=O)[C@H](CCC(=O)O)NC(=O)[C@H](CO)NC(=O)[C@@H](NC(=O)[C@@H](N)CO)C(C)C)C(=O)N[C@@H](CCC(N)=O)C(=O)N[C@@H](CC(C)C)C(=O)N[C@@H](CCSC)C(=O)N[C@@H](Cc1cnc[nH]1)C(=O)N[C@@H](CC(N)=O)C(=O)N[C@@H](CC(C)C)C(=O)NCC(=O)N[C@@H](CCCCN)C(=O)N[C@@H](Cc1cnc[nH]1)C(=O)N[C@@H](CC(C)C)C(=O)N[C@@H](CC(N)=O)C(=O)N[C@@H](CO)C(=O)N[C@@H](CCSC)C(=O)N[C@@H](CCC(=O)O)C(=O)N[C@@H](CCCN=C(N)N)C(=O)N[C@H](C(=O)N[C@@H](CCC(=O)O)C(=O)N[C@@H](Cc1c[nH]c2ccccc12)C(=O)N[C@@H](CC(C)C)C(=O)N[C@@H](CCCN=C(N)N)C(=O)N[C@@H](CCCCN)C(=O)N[C@@H](CCCCN)C(=O)N[C@@H](CC(C)C)C(=O)N[C@@H](CCC(N)=O)C(=O)N[C@@H](CC(=O)O)C(=O)N[C@H](C(=O)N[C@@H](Cc1cnc[nH]1)C(=O)N[C@@H](CC(N)=O)C(=O)N[C@@H](Cc1ccccc1)C(=O)O)C(C)C)C(C)C [LY333334],mean height decrease at endpoint,20-μg group,2.20 mm
same,mean height decrease at endpoint,40-μg group,3.25 mm
